Data taken from article doi:10.1101/2024.02.24.581848.
Results are given in words; binding and its absence hold for the method and conditions named. Binding calls can cover weak binding; strength is not graded here.

Target: HigC SecB^TA chaperone of the E. coli NT1F31 HigBAC system (E. coli NT1F31)
Test: HDX-MS

Q: How did the binding turn out when GELTAESYDDSYLDDEDADWTATGQGQKSAG (peptide, UniProt P03733 48-78) [gpV^48-78 peptide] was run?
A: binds
